# Reference: PubChem BioAssay AID1347423 (Functional Genomics Laboratory (NCATS/FGL), 2020)
# The campaign covered roughly 52,000 sequences. About 210 (0.4%) were called active.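 Rule for the calls: active = gene whose silencing raises cell survival under the drug, median off-target-corrected z-score across its silencing RNAs 2 or more; inactive = the rest.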 The list shows a part of the results.
# Experiment: Resistance to Poly (ADP-Ribose) Polymerase inhibitor: Gene Identification via Genome-wide siRNA Screen
# Settings: mouse BRCA2 R2336H ES cells, olaparib, CellTiter-Glo viability; hits give high values
# Outline: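 Mouse BRCA2 R2336H ES cells were reverse-transfected with siRNA (20 nM final), treated at 48 h with 500 nM olaparib, and read by CellTiter-Glo after 72 h. Scores: MAD-based z per siRNA, median per gene, seed off-target correction.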
row,Sequence,z-score
1,GGACCAACUACACACUACGTT against Grik5,inactive: 1.13
2,GGGAUGAACUCAACUGGAATT against Lrpap1,inactive: 0.843
3,GGCAAGGCUAACUGACCUGTT against Cxcl2,inactive: 0.494
4,GGAUAAGAGUGAUGAAGCCTT against Dgcr2,inactive: 0.133
5,CCUUGACUUUAAUUUGAAGTT against Bpil2,inactive: -0.0935
6,GGAACAAAUGCCACUAACCTT against Pde5a,inactive: 1.42
7,GGACACAGAUUUCACUAUATT against Arfrp1,inactive: -0.5
8,GAUUUUCUGUGUCCAUCAATT against Olfr726,inactive: -0.601
9,GCAACAAAUGGACUUUCCATT against Stard13,inactive: -1.37
10,GGCAAAAAAAACUGCUAUATT against Gpr128,active: 0.0555
11,GGUAAAGUCAAAAUCACCATT against D14Ertd581e,inactive: 1.58
12,GGCAAAGCAGGGAUCUAGATT against Noxo1,inactive: -0.235
13,GCACAACAUACCCUGUGGUTT against Syn1,inactive: -0.053
14,GGCUGCUUUAAAGAGAUUCTT against Olfr1045,inactive: 0.919
15,CCAAAGUCAUAAUUCCAACTT against Timm23,inactive: -1.95
16,CCUCAAAGGCCCUACCAAUTT against Tle6,inactive: -2.35
17,GGCUUGUGAAUGGAAAUAATT against Hspca,inactive: -0.904
18,GGUGAAAGAGAAGACUGAATT against Scye1,inactive: -2.55
19,GGAGGUUCAGCAACGCAUUTT against Tessp3,inactive: 0.0178
20,GCAUCAUGAACUCCUUUGUTT against Hist1h2ba,inactive: -0.703
21,CCUACGUGUUUAAGAUGAATT against Alk,inactive: -0.439
22,GGUUUUUAACUGGAAAACUTT against 4632422M10Rik,inactive: -0.064
23,GGGACAAAGAAAAUCUACUTT against Ehf,inactive: -1.63
24,GAAAAAUGUGGAAGAGAUUTT against Olfr1219,inactive: -0.27
25,GGCCAUUUGGAAACUAUUATT against Anapc11,inactive: -0.5
26,GGACAAAAGGCAAUCUACATT against 2810422O20Rik,inactive: -0.171

row,Sequence,z-score
1,GGGAAAAAUGUCUCAAACATT against 1200006O19Rik,inactive: 0.498
2,GGAAUGAGAAGAGAGGAUCTT against Rpp25,inactive: 0.0843
3,GGGAUCAAAGGAAAUUACATT against Vnn1,inactive: -1.46
4,GGUCUCCACCUCCAUAUCCTT against Slc15a3,inactive: 0.715
5,GGACAGCACUAACACAUCCTT against Slamf9,inactive: -0.438
6,GGGAUCUAAGGAACAGAGATT against Fgf8,inactive: 0.00428
7,GGGUUAGGUUGGGAUGGAUTT against Ccnd3,inactive: -0.69
8,GGUGUACCUACAGUUAUGGTT against Mir,inactive: -0.917
9,CCUCUACUCCUUAUUGUCUTT against Ctf2,inactive: 1.07
10,CCAAGCUAGAUAAAGAAAGTT against Yap1,inactive: -2.41
11,GAGAAGAAGACAAAGAUCCTT against Defb7,inactive: -0.714
12,GCAAUCCAGAGGUACGCUATT against Hgf,inactive: 0.286
13,GGCUAAACUGAAGGAAUUCTT against Fkbp10,inactive: -0.482
14,CCGAGGAGAACACUUGUAGTT against Opn4,inactive: -0.819
15,GCUCUUCUCAAGUAUGACGTT against Chrna6,inactive: 1.06
16,GGUGUAUGUGCUGAAGCGATT against Ctdspl,inactive: -0.00555
17,CCUCUUAAGUUUUCCAUGATT against Tuba2,inactive: -2.07
18,GGUGACAUCUUCAUUGGCCTT against Actr1a,inactive: -0.486
19,GCGCGUCAUCUUCUGACUUTT against BC025076,inactive: -0.524
20,CCUUCCGCCUAUCCUAUUGTT against Olfr52,inactive: -0.704
21,GGAACUUCAGUGUUGCCUCTT against Olfr257,inactive: 0.105
22,CCACUUUCUGUUGCACUCUTT against 2310067G05Rik,inactive: -0.948
23,CGACAUGGAACACAAGACCTT against Map3k11,inactive: -0.547
24,GCUGCCGAUUGAUAGCUUCTT against Pik3ca,inactive: -1.11
25,GGCUCAUUUAACUCCAUGCTT against BC031407,inactive: 1.54
26,GGGAAGAGAAAACUGGACUTT against Xrcc1,inactive: -0.484

# 4 entries picked at random from the list so far, as already listed:
row,Sequence,z-score
17,CCUCUUAAGUUUUCCAUGATT against Tuba2,inactive: -2.07
11,GAGAAGAAGACAAAGAUCCTT against Defb7,inactive: -0.714
7,GGGUUAGGUUGGGAUGGAUTT against Ccnd3,inactive: -0.69
22,CCACUUUCUGUUGCACUCUTT against 2310067G05Rik,inactive: -0.948

# Further entries follow:

row,Sequence,z-score
1,GGAAACCCAUUCACAAAUCTT against Tcfec,inactive: 0.19
2,CCCAUCUCUAUCUUGGCCGTT against D1Bwg1363e,inactive: 0.0856
3,CUUAAAGGAAUCCUGGUGGTT against LOC434197,inactive: 1.09
4,GGAAUCAUCUUCAUUGACCTT against Agpat1,inactive: -2.32
5,GGCUUCAGCAUUAAUUGUUTT against Ass,inactive: -1.59
6,GCUAGAAAGAGUUAAUCUATT against Wdr11,inactive: -0.638
7,GGAAGGACUCCUGUACAUCTT against Cyp4f18,inactive: -0.206
8,GGUCCAAGCCUUAAUAUAUTT against Aadac,inactive: 0.0303
9,CCGUCUUUGUGCUAUGCUGTT against Sstr4,inactive: 0.256
10,GCCAUUGCUUUAUAAGGUUTT against Olfr901,inactive: 0.0414
11,GGCUGUUUAUUGUAAUGGATT against BB049667,inactive: 0.537
12,GGCAGAUACUUCUCUGGAGTT against Sdc4,inactive: -0.388
13,GUAGUAACAGGAUCUUCUUTT against V1rc20,inactive: -0.398
14,GGAACAAAGUGUCAGAGGATT against Hcls1,inactive: 0.246
15,GCAUUACUUGAGCAAAACATT against 1600021C16Rik,inactive: 0.335
16,GGCUCCAUCGAAAGGUAAATT against Lyar,inactive: 0.696
17,GGCUUUGAAAGUUACUACUTT against Zfp609,inactive: 0.684
18,CGAACAGAGUCUAAUCUCATT against Ptpn1,inactive: 0.714
19,GCUCGGUAGGUAUUUUCUGTT against AW547186,inactive: 1.89
20,CGAGUGCAUGAAAUCUUCATT against Polr2a,inactive: -2.14
21,GCUCUAGAAGCGUACAGGCTT against Pole3,inactive: 0.872
22,GGCAACCUUGUCUAUUCACTT against 1110014J01Rik,inactive: -0.726
23,GGAGAAAGGAUAUGAACUUTT against BC013481,inactive: 0.774
24,GGAAACCCAGAGCAGCAGATT against Tdg,inactive: 0.246
25,GGAAAAAGAAAAACCAGCATT against Sytl4,inactive: -0.521
26,GGUGUCUUAAAGCUGAAAUTT against E2f5,inactive: 2.8

row,Sequence,z-score
1,GAAGUCUGCCAAAUUAAUGTT against 6330583I20Rik,inactive: 0.225
2,GCAUUCAAGCAACCACGAATT against Ptdss1,inactive: -0.153
3,GCAACCUGCUAUUGGCACUTT against Tm6sf2,inactive: 1.5
4,CUAAUGUCUGUGGUCAAAUTT against Trim6,inactive: -0.535
5,GGAAUCAAAGGAACAGAGATT against 4930435C18Rik,inactive: -0.79
6,GCCGAUUUGCUAUCUCAUATT against Tnf,inactive: -0.465
7,GGAUGAGGCACAGUUGUGUTT against Trim10,inactive: 1.06
8,GGUGUUUGAUGUAACUAAATT against Dgke,inactive: 0.396
9,GGACGGUAGCCAUAUUAAUTT against Spink2,inactive: -0.266
10,GGAUAUCCAUAGAAUGUAATT against 2310042D19Rik,inactive: -1.72
11,GAGUGGUUUCUAAUUCGUATT against A830031A19Rik,inactive: 0.41
12,GGAAUAUGAGAAAAUGAGCTT against Ctsc,inactive: 1.38
13,GUGCAUCAUGUCGGCUUUGTT against MNCb-4137,inactive: -0.5
14,CGGCAAUGUGACUAACAUCTT against E430025L02Rik,inactive: -1.06
15,GGUUAAGUUACUAACCCAGTT against 4931406C07Rik,inactive: 0.632
16,GGUGGCAUAUACUUUGCUUTT against Cklfsf2a,inactive: 0.693
17,CGUAGAAGAGUACAUGAUUTT against Pdcd10,inactive: -0.822
18,GGAGUGUUCUAGGACUAAGTT against D630003M21,inactive: 0.794
19,GGACAAAUCAGUUCUGCGUTT against Car13,inactive: 0.63
20,GGAAAUGCGACGAGUAUAUTT against Slc38a1,inactive: -1.52
21,GGUAAGUGAACUAUCUAAGTT against Mlstd1,inactive: -0.136
22,GGAUGAGCAUAAAAGUCCUTT against Atf7ip,inactive: -0.659
23,CGGUUUGCCAAAGUACACATT against Exosc1,inactive: -1.73
24,CCCUAAGUAAUAGAAGUGGTT against 5330414O08Rik,inactive: -1.29
25,GCCAGGAGUACUGUAUAUATT against Spint1,inactive: -0.505
26,GGAUGUGAUAACUUUUCUATT against Csf2rb2,inactive: 1.18
